Literature values as cited in US20140186466A1, “NEUTRACEUTICAL FORMULATION FOR TREATMENT OF DIABETES” (Creative Medical Health Inc., priority 2012, published 2014).
For at least one compound, name, drawing or mass did not settle the structure.

Columns and labels:
[1] = tested on: dendritic cells; conditions: after stimulation via CD40
[2] = tested on: colitis in animal models; conditions: preferential induction of Th2 cytokine production
[3] = tested on: adiponectin, leptin and Fas gene expression
[4] = tested on: stem cells

Compound	ability of dendritic cells to secrete interleukin-12 [1]	onset of colitis [2]	gene expression of Fas [3]	gene expression of adiponectin [3]	gene expression of leptin [3]	expansion of stem cells ex vivo [4]
CN(CCOc1ccc(CC2SC(=O)NC2=O)cc1)c1ccccn1 (stereo not drawn) [rosiglitazone, Rosiglitazone]	inhibits	inhibit onset	–	–	–	–
C=C(C)[C@@H](CC=C(C)C)C[C@@]12C[C@@H](CC=C(C)C)C(C)(C)[C@@](CC=C(C)C)(C(=O)C(C(=O)c3ccc(O)c(O)c3)=C1O)C2=O [Garcinol]	–	–	down-regulated	up-regulated	down-regulated	promote expansion
